Results published in PubChem BioAssay AID1347423 (Functional Genomics Laboratory (NCATS/FGL), 2020).
The whole screen tested about 52,000 sequences, of which about 210 (0.4%) were called active.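 The calls were made as follows: active = gene whose silencing raises cell survival under the drug, median off-target-corrected z-score across its silencing RNAs 2 or more; inactive = the rest.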 Some of the results follow.

Test: Resistance to Poly (ADP-Ribose) Polymerase inhibitor: Gene Identification via Genome-wide siRNA Screen
Conditions: mouse BRCA2 R2336H ES cells, olaparib, CellTiter-Glo viability; stronger effect = higher value
Procedure, shortened: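 Mouse BRCA2 R2336H ES cells were reverse-transfected with siRNA (20 nM final), treated at 48 h with 500 nM olaparib, and read by CellTiter-Glo after 72 h. Scores: MAD-based z per siRNA, median per gene, seed off-target correction.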

For GCACUCAAGGUUUUACUGUTT against Satb1, which z-score is on record?
The z-score was inactive: 0.478.

With CGAUGGAAGUUUAAACCUCTT against Htr1a as the sequence, how does the z-score read?
Its z-score is inactive: 0.54.

Which z-score does the source give for GCGAAGAAGAAGAUAGUAATT against Zfp265 here?
Its z-score is inactive: -0.0605.

With GGAAGCAAAUGGUUUGUAATT against Sfrs2 as the sequence, how does the z-score read?
Its z-score is inactive: -2.38.

Which z-score does the source give for “GGACUAUCAGCAUUUCGUUTT against 1500041J02Rik” here?
Its z-score is inactive: 0.942.

With “GGAAUUGACAUAUUCAGUCTT against 9130221H12Rik” as the sequence, how does the z-score read?
Its z-score is inactive: 0.3.

With GGCGUGUCAAAGAAAUUUUTT against V1rd7 as the sequence, how does the z-score read?
The z-score was inactive: 1.41.

With GGACUUUACAGACACUUUUTT against Aof1 as the sequence, how does the z-score read?
Its z-score is inactive: -0.77.

With GGAAGAUCCUCGAUAGUCATT against Rgs7 as the sequence, how does the z-score read?
Its z-score is inactive: 1.13.

Which z-score does the source give for “GGACACACAGUAUUGUUUGTT against 2310010M24Rik” here?
The z-score was inactive: -0.174.

With GUCUUUCUGUUACCUUGGCTT against LOC384806 as the sequence, how does the z-score read?
The z-score was inactive: -0.4.

With GGAACUAAAGCGAUAUUUATT against Thrap6 as the sequence, how does the z-score read?
Its z-score is inactive: -0.755.

For GCAUGCUUUCUGAAUACAATT against Cdk8, which z-score is on record?
The z-score was inactive: 0.125.

Which z-score does the source give for GGUUUAGGAUUUUUUGUUGTT against Ccr5 here?
Its z-score is inactive: -0.207.

Which z-score does the source give for GGAUAAAAUUGAGUCUAUGTT against Was here?
Its z-score is inactive: -1.27.

With GGCUUCUCAUUGUGAAUAUTT against D6Mm5e as the sequence, how does the z-score read?
Its z-score is inactive: 1.46.

For GGGUGAGUCACGAAAGUCATT against Epor, which z-score is on record?
The z-score was inactive: -0.644.

With GCAUGCAUCUUCCUUCGACTT against Cabp2 as the sequence, how does the z-score read?
Its z-score is inactive: -1.07.

Which z-score does the source give for GGUUAAUCUGAGAAUUCUATT against Kcnk1 here?
The z-score was inactive: 0.739.

With GGUGAUAAAGCCAAGCAAATT against Vps4b as the sequence, how does the z-score read?
Its z-score is inactive: 1.99.

With CCAACUUUAUCUAAGGUGCTT against Bhmt as the sequence, how does the z-score read?
The z-score was inactive: 0.682.

Which z-score does the source give for GGAGUCCUUCUUUCACUGGTT against Pep4 here?
Its z-score is inactive: -0.12.

Which z-score does the source give for GCCUUUCCACCGAUGAAAUTT against Dpyd here?
The z-score was inactive: -1.67.

With GCUACAAGCGAUAUAUUCCTT against Jak1 as the sequence, how does the z-score read?
Its z-score is active: 2.92.

For GCUCUUAAUCCUAUCUAUCTT against Rgs9bp, which z-score is on record?
Its z-score is inactive: 0.527.

For CCAGUCUUAUCUGUAGAAGTT against Obox1, which z-score is on record?
The z-score was inactive: 0.436.

With CGACUAUUUGGGUGGCAAGTT against Scin as the sequence, how does the z-score read?
Its z-score is inactive: 0.741.

With “GGUUACGAAAAGCUGCCUUTT against 2010321M09Rik” as the sequence, how does the z-score read?
The z-score was inactive: -2.05.

With GCUCAAUUGUUCUUCUUUUTT against Olfr806 as the sequence, how does the z-score read?
Its z-score is inactive: 1.22.

Which z-score does the source give for GGCAUUCAGAAACAUGGUUTT against Esx1 here?
The z-score was inactive: -0.721.

For GGACAUGGAAAACAAAAUCTT against Capzb, which z-score is on record?
The z-score was inactive: -0.452.

With GGCUGAUCCUAAGAAAGAATT against BC017158 as the sequence, how does the z-score read?
The z-score was inactive: -2.04.

With GGAAGGACAGACAGACAAGTT against Pxt1 as the sequence, how does the z-score read?
The z-score was inactive: -1.51.

With GGAAAAAUAGGUCGAAUGATT against Arntl as the sequence, how does the z-score read?
The z-score was inactive: -0.785.

With CCGUAUCAUCCAGUUUAACTT against Gnpda1 as the sequence, how does the z-score read?
The z-score was inactive: 0.449.

For “GCAGUGUUGUCAAAACUUGTT against 2310020P08Rik”, which z-score is on record?
Its z-score is inactive: 1.21.

Which z-score does the source give for GCUGAGACUUCGAGCCUAUTT against Polr2c here?
Its z-score is inactive: -2.53.

Which z-score does the source give for CCACAUCCCACGGGAUCUUTT against BC050210 here?
Its z-score is inactive: 0.917.

With GGAAUGAAAUCUCUGCAUGTT against Za20d2 as the sequence, how does the z-score read?
The z-score was inactive: -0.0858.

With GGAUGAACUGACUAAAAUATT against Fmn as the sequence, how does the z-score read?
Its z-score is inactive: 0.465.

With GGAAACUUGAUUAUUUAGGTT against Vrk2 as the sequence, how does the z-score read?
Its z-score is inactive: 0.0722.

For GGCUGCUGUUGUGCCUAAATT against Zdhhc12, which z-score is on record?
Its z-score is inactive: -1.78.

For “GGGCUCACACAAAUAAGAGTT against 2600017H02Rik”, which z-score is on record?
Its z-score is inactive: -0.734.

With GGACUUCAACUUGAUGGAGTT against Add2 as the sequence, how does the z-score read?
The z-score was inactive: -0.0368.

With “GAGUGGAUGGCUCAAAGGATT against 6430544H17Rik” as the sequence, how does the z-score read?
Its z-score is inactive: 0.555.

For GGGACAAGAAGAACAAGAGTT against Srp14, which z-score is on record?
Its z-score is inactive: 0.995.

With GGCUGUCUUCUGAAGGACATT against Mrpl43 as the sequence, how does the z-score read?
Its z-score is inactive: -1.21.

Which z-score does the source give for GUGCAGUUGUGACAAUAUATT against Pramel3 here?
The z-score was inactive: -0.703.

For “GCAGAGUCUGGAUCAACAUTT against 4732418C07Rik”, which z-score is on record?
The z-score was inactive: -0.745.

For CGAUUGUAUAGCUUUUAAGTT against Gfpt2, which z-score is on record?
The z-score was inactive: 0.84.

With CGAAAUGACAGUGUUAUUCTT against Mpl as the sequence, how does the z-score read?
The z-score was inactive: 2.17.

Which z-score does the source give for “GGACUGCUGAACUUGCUCATT against 1810010N17Rik” here?
Its z-score is inactive: 0.529.

For “GGGCCUUCACACUUCACUUTT against 2310016E02Rik”, which z-score is on record?
The z-score was inactive: 0.51.

For GCGUGGAUAACACUGUUGUTT against Hira, which z-score is on record?
Its z-score is inactive: -0.103.

For “GGUCCUAUCUUCCUAUCAUTT against D130058I21Rik”, which z-score is on record?
The z-score was inactive: 1.64.

Which z-score does the source give for GACGAAUAUCAUCUCACACTT against Olfr875 here?
The z-score was inactive: 0.619.

With “GGUUCAUUGUCUGAGAUCATT against Gt(ROSA)26asSor” as the sequence, how does the z-score read?
Its z-score is inactive: 1.51.

For “GGAGCUGAGGAAUUGAUCCTT against 1700121L12Rik”, which z-score is on record?
The z-score was inactive: -0.704.

With GGAGCUCUUUGACUUCUUGTT against Uqcrh as the sequence, how does the z-score read?
The z-score was inactive: 0.582.

With GCUUAAUGAACUGUCCUCUTT against Agc1 as the sequence, how does the z-score read?
The z-score was inactive: 2.42.

With GGCAUUUAAUAUCAGGUCATT against Zfp62 as the sequence, how does the z-score read?
Its z-score is inactive: -0.367.

For GCCAAAGUAGCAUUAGUGATT against AI317237, which z-score is on record?
Its z-score is inactive: 1.12.

For GCGUGAAAAUGGAUAUCUUTT against Stab1, which z-score is on record?
Its z-score is inactive: 0.508.

With GGAAAAGAUGCCUGUAUUUTT against Sgcd as the sequence, how does the z-score read?
Its z-score is inactive: -0.224.

For CGGUGAUCAAAGAUAAGAATT against Zfp95, which z-score is on record?
Its z-score is inactive: 0.407.

With “GGAGAUCAAAGAAUCUUGGTT against 6330406L22Rik” as the sequence, how does the z-score read?
Its z-score is inactive: 1.58.

With GGAAGCCAUCUUUAUCCUGTT against Pole4 as the sequence, how does the z-score read?
Its z-score is inactive: 1.32.
